No constants are given. Whether binding was seen depends on the method and setting. Some results given as binding are weak or reduced against the parent protein; the word gives no strength.
What was measured:
[1] = target: T1, cynomolgus NKG2A and cynomolgus CD94 expressed on transiently transfected CHO-S cells (cynomolgus) (UniProt Q68VD2+Q68VD4); assay: flow cytometry on transfected CHO-S cells
[2] = target: T1, cynomolgus NKG2A and cynomolgus CD94 expressed on transiently transfected CHO-S cells (cynomolgus); assay: blocking of PE-conjugated HLA-E pentamer binding to transiently transfected CHO-S cells, flow cytometry (percentage binding) [panel B cNKG2A]
[3] = target: T1, cynomolgus NKG2A and cynomolgus CD94 expressed on transiently transfected CHO-S cells (cynomolgus); assay: flow cytometry, transiently transfected CHO-S cells, AF647 goat anti-human IgG secondary (MFI) [panel 23686]

Measured: binding

B1: antibody 23686 (antibody, human IgG1, kappa, L234A L235A, V domains shown)
VH: EVQLVESGGGLVKPGGSLRLSCAASGFTFSSYSMNWVRQAPGKGLEWVSSISSSSSYIYYADSVKGRFTISRDNAKNSLYLQMNSLRAEDTAVYYCARDEWGLLGFDSWGQGTLVTVSS
VL: EIVLTQSPATLSLSPGERATLSCRASQSISNYLAWYQQKPGQAPRLLIYDASNRATGIPARFSGSGSGTDFTLTISSLEPEDFAVYYCQQRTDWPPWTFGQGTKVEIKR
binds: all assays above
